From paper PMC5177617
No constants are given. Whether binding was seen depends on the method and setting. Some entries that bind do so weakly or less than the wild type.

Chains of the proteins cited; added tags and fusions are not shown. Residues count along the entry.
UniProt Q9NNX6, residues 59-404: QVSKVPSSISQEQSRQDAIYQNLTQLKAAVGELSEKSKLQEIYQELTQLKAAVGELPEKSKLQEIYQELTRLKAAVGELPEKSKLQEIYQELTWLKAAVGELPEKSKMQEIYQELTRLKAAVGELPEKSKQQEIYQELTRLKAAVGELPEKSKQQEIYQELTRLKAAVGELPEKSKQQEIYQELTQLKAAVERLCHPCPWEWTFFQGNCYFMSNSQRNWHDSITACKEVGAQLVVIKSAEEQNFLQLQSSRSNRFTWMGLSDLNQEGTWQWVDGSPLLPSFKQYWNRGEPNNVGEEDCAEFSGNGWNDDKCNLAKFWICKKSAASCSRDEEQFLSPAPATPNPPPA
UniProt Q07021, residues 74-282: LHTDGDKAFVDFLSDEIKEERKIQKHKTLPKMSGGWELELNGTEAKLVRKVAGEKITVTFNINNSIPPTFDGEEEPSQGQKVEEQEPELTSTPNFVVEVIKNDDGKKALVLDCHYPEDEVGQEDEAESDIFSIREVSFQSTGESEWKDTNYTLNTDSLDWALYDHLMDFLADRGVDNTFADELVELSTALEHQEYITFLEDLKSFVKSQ

Target: soluble DC-SIGN tetramer (entire extracellular domain including the α-helical neck region) (UniProt Q9NNX6)
Assay: ELISA; competitive: DC-SIGN coated at 5 µg/well; gC1qR constant (5 µg/well) with ghB at 5, 2.5, 1.25, 0.625 µg/well in 5 mM CaCl2 buffer; 37°C […] then 4°C […]; bound gC1qR detected with anti-gC1qR polyclonal antibody; both purified

- binding: binds
Substance: recombinant mature human gC1qR (residues 74-282) (from UniProt Q07021 74-282) (receptor)
